The record followed here is article PMC9825192.

Chains of the proteins cited; added tags and fusions are not shown.
UniProt Q9BYW2: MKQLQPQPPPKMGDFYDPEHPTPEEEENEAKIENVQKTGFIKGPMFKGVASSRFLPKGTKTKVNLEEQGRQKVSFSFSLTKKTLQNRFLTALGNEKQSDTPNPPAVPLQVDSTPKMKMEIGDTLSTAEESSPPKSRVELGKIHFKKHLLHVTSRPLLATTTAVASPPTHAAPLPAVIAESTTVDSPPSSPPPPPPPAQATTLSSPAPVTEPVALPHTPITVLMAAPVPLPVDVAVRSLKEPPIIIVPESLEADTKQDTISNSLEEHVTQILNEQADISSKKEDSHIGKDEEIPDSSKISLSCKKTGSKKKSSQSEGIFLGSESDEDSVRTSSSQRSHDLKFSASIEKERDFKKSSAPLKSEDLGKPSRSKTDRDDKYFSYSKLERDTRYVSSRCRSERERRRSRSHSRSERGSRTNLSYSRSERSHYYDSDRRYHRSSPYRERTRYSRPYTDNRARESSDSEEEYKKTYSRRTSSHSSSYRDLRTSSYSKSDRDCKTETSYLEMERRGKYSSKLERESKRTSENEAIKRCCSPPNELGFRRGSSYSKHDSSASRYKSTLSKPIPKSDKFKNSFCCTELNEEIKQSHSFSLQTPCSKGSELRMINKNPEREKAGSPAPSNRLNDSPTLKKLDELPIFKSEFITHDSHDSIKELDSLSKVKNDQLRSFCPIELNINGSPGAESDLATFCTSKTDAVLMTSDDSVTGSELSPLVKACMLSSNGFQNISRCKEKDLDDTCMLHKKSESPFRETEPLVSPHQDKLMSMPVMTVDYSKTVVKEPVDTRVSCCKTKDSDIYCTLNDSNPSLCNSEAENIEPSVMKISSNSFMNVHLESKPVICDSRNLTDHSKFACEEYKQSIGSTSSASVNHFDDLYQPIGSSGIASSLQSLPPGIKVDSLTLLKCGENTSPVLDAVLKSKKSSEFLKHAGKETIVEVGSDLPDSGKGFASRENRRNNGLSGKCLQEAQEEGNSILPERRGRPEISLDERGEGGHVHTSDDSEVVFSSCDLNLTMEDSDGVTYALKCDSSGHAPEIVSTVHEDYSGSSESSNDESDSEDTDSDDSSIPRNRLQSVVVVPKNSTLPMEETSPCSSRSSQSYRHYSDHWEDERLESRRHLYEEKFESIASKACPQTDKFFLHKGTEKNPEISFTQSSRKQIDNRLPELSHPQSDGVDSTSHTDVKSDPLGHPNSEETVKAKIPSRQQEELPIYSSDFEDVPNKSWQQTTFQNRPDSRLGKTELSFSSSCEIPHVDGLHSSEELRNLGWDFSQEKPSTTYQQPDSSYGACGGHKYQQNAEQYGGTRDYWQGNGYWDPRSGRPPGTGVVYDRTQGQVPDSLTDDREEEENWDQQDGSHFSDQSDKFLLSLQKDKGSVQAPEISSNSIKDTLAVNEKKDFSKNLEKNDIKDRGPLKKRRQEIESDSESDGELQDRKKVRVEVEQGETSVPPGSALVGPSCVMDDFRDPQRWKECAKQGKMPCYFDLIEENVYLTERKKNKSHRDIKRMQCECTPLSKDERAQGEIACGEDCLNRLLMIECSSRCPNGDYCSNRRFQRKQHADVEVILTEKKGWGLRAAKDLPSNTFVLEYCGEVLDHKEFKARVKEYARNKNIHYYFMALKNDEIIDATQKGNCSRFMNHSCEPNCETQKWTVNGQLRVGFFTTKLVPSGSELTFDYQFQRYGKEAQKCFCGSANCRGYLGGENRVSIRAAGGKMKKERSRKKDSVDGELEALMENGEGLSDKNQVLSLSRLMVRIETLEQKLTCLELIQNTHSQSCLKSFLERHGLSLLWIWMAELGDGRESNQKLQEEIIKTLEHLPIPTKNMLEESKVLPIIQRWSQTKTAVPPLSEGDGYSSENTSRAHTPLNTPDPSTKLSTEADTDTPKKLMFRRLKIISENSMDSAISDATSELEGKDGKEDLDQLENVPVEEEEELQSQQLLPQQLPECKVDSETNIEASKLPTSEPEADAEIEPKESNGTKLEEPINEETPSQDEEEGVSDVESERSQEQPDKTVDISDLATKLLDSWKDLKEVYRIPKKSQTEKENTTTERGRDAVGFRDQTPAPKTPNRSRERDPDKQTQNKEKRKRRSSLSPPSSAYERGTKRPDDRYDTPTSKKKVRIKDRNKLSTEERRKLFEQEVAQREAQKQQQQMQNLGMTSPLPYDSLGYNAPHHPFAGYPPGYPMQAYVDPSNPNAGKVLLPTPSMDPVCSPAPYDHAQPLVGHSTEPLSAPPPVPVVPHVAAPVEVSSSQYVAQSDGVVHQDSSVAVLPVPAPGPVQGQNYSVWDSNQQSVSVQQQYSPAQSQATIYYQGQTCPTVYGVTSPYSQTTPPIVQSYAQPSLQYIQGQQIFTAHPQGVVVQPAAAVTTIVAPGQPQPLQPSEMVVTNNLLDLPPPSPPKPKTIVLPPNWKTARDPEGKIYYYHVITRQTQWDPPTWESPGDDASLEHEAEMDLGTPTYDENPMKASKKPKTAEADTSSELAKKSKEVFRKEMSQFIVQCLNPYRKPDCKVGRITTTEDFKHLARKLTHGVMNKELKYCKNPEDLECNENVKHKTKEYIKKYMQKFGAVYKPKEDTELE
UniProt Q9HCK8: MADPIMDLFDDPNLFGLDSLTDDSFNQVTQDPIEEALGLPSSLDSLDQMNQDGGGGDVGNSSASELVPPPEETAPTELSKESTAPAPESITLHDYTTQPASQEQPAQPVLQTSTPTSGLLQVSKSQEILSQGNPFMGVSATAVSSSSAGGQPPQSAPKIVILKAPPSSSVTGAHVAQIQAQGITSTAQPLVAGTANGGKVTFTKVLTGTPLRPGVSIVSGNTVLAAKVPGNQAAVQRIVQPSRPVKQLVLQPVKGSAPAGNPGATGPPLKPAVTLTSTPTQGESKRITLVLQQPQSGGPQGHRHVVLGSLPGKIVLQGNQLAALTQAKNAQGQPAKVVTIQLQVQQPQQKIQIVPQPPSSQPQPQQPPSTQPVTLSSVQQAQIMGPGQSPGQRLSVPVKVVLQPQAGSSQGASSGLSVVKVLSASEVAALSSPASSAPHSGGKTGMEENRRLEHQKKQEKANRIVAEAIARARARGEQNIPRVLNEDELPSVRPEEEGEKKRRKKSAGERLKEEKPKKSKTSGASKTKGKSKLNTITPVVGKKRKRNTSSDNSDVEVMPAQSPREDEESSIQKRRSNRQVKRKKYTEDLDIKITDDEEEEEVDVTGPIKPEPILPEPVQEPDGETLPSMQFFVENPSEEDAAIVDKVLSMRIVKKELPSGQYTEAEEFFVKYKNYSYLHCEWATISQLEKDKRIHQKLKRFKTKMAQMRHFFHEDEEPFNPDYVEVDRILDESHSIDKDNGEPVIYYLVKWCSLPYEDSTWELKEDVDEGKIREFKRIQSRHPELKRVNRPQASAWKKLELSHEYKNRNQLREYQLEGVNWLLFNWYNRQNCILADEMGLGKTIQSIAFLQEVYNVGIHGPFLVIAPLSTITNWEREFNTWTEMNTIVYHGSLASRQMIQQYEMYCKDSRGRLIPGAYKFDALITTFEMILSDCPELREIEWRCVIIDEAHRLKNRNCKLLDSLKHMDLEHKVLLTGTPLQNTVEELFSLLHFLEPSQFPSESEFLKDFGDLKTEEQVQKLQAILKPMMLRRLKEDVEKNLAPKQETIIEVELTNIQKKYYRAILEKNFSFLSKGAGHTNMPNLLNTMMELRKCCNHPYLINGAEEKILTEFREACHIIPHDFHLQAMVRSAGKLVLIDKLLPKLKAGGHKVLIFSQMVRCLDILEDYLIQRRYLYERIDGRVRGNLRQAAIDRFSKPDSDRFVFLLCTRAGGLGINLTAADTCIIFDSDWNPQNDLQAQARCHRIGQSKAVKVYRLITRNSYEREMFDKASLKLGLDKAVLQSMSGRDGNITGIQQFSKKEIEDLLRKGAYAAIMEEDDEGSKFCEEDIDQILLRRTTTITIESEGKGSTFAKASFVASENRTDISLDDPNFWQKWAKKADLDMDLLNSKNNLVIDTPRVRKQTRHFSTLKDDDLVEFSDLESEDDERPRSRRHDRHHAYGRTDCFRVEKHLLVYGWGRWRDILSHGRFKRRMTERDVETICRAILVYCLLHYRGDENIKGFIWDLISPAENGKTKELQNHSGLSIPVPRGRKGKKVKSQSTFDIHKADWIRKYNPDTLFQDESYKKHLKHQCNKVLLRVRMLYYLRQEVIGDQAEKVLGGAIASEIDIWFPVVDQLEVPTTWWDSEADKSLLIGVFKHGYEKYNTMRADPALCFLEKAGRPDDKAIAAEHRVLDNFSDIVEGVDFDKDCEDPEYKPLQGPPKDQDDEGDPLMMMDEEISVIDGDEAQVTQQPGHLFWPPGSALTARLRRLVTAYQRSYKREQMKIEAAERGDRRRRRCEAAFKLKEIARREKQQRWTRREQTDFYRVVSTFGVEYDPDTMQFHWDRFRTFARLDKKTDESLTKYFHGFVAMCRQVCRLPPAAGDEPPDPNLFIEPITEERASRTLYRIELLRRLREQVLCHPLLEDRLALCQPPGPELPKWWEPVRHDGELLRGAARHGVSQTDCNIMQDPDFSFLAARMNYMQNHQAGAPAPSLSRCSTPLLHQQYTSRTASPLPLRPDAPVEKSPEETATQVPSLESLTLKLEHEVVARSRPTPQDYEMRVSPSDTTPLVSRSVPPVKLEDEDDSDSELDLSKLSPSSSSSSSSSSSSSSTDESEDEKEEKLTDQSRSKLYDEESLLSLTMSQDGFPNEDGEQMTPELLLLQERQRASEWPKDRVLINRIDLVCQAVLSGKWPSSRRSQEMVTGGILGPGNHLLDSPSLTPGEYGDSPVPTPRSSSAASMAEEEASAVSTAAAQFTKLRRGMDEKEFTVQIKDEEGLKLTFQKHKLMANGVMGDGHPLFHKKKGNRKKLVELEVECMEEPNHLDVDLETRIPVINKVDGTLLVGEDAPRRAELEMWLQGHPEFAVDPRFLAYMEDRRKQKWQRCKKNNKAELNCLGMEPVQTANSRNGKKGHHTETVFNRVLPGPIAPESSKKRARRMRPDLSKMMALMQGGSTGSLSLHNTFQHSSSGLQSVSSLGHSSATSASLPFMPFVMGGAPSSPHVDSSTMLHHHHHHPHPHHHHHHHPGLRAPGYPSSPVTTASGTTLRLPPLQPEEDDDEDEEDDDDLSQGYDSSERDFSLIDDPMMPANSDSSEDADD

Results are given in words; binding and its absence hold for the method and conditions named. Binding seen in cells or lysates may run through a third protein. Some results given as binding are weak or reduced against the parent protein; the word gives no strength.

The target of assay [1] is SETD2 (human (endogenous in iPSC-derived NPCs)) (UniProt Q9BYW2). Briefly: co-IP; 1 mg hiNPC nuclear fraction, 1 ug primary antibody overnight at 4°C, Protein A or G Sepharose, washed with NLB (150 mM KCl, 0.3% NP-40); western blot; for the CHD8 IP also after RNase A, DNase I or with EtBr. (In general: A western blot detects proteins with antibodies after separation by electrophoresis.)

Assay [2] deals with chromodomain helicase DNA-binding protein 8 (human (endogenous in iPSC-derived NPCs)) (UniProt Q9HCK8). Described as above.

B1: heterogeneous nuclear ribonucleoprotein L (protein, UniProt P14866 1-589)
chain: MSRRLLPRAEKRRRRLEQRQQPDEQRRRSGAMVKMAAAGGGGGGGRYYGGGSEGGRAPKRLKTDNAGDQHGGGGGGGGGAGAAGGGGGGENYDDPHKTPASPVVHIRGLIDGVVEADLVEALQEFGPISYVVVMPKKRQALVEFEDVLGACNAVNYAADNQIYIAGHPAFVNYSTSQKISRPGDSDDSRSVNSVLLFTILNPIYSITTDVLYTICNPCGPVQRIVIFRKNGVQAMVEFDSVQSAQRAKASLNGADIYSGCCTLKIEYAKPTRLNVFKNDQDTWDYTNPNLSGQGDPGSNPNKRQRQPPLLGDHPAEYGGPHGGYHSHYHDEGYGPPPPHYEGRRMGPPVGGHRRGPSRYGPQYGHPPPPPPPPEYGPHADSPVLMVYGLDQSKMNCDRVFNVFCLYGNVEKVKFMKSKPGAAMVEMADGYAVDRAITHLNNNFMFGQKLNVCVSKQPAIMPGQSYGLEDGSCSYKDFSESRNNRFSTPEQAAKNRIQHPSNVLHFFNAPLEVTEENFFEICDELGVKRPSSVKVFSGKSERSSSGLLEWESKSDALETLGFLNHYQMKNPNGPYPYTLKLCFSTAQHAS
For the molecule B1, the binding result in assay [1] and in assay [2] was “binds” throughout.
